Measured data: PubChem BioAssay AID1224828 (NIAID, 2016)
Shown is an unselected part of about 17,000 deposited reagents. In the full data, 762 (4.5%) were called active. 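Active calls include both raised and lowered p65 entry, mostly lowered; wells with fewer than 50 cells lack a z-score.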 The raw values are shown without normalisation. A number with no mark means an inactive call.

Screen: 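Find genes required for NF-kappaB p65 moving into the nucleus after LPS in mouse macrophages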 (primary screen)
System: mouse RAW264.7 G9 macrophage reporter cells (GFP-p65, Tnf promoter-mCherry)
Knock-down reagent: siRNA pool against mouse genes, 100 nM
Time to read-out: 2 days siRNA transfection, then 40 min LPS before fixation
Challenge: LPS (Salmonella minnesota R595) at 10 ng/ml
Measurement: 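Microscopy ratio of nuclear to perinuclear-ring GFP-p65 signal, scaled to the plate median; gene score is the average of two replicate robust z-scores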
Direction: p65 translocation robust z-score: higher = more nuclear NF-kappaB p65 after LPS than the plate median; nuclear/cytoplasmic p65 ratio: higher = more nuclear NF-kappaB p65
Hit rule: 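Active if robust z is above 3.3 (negative regulators) or below -1.56, the Tlr4 control median (positive regulators); activity score 50 or more; control wells not called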
Calls: active = hit (p65 shift raised or lowered); inactive = no clear change

no.	Target gene	PubChem SID	p65 translocation robust z-score	nuclear/cytoplasmic p65 ratio, rep 1	nuclear/cytoplasmic p65 ratio, rep 2	low cell count flag
1	Sh3glb2 (SH3-domain GRB2-like endophilin B2)	SID315478589	-0.29	1.34	1.25	enough cells to score
2	Etnppl (ethanolamine phosphate phospholyase)	SID315474311	-1.46	1.28	1.57	enough cells to score
3	Acp1 (acid phosphatase 1, soluble)	SID315465251	-0.42	1.58	1.53	enough cells to score
4	Itga11 (integrin alpha 11)	SID315481097	0.74	1.49	1.56	enough cells to score
5	Eri2 (exoribonuclease 2)	SID315474192	1.84	1.55	1.76	enough cells to score
6	Astl (astacin like metalloendopeptidase)	SID315477909	2.49	1.94	2.22	enough cells to score
7	Srpk3 (serine/arginine-rich protein specific kinase 3)	SID315471578	2.29	2.13	1.61	enough cells to score
8	Gtf2a1 (general transcription factor II A, 1)	SID315475847	0.14	1.4	1.44	enough cells to score
9	A730049H05Rik (RIKEN cDNA A730049H05 gene)	SID315474994	1.04	1.6	1.66	enough cells to score
10	Rgs2 (regulator of G-protein signaling 2)	SID315468968		1.66	1.57	fewer than 50 cells per well; well left out of scoring
11	Ear10 (eosinophil-associated, ribonuclease A family, member 10)	SID315475955		1.32	1.3	fewer than 50 cells per well; well left out of scoring
12	Pxylp1 (2-phosphoxylose phosphatase 1)	SID315479267	-0.15	1.41	1.41	enough cells to score
13	Scarf2 (scavenger receptor class F, member 2)	SID315478314	0.35	1.6	1.53	enough cells to score
14	Ube4b (ubiquitination factor E4B)	SID315472048	-0.06	1.55	1.45	enough cells to score
15	Lrrc25 (leucine rich repeat containing 25)	SID315477671	-0.98	1.53	1.43	enough cells to score
16	Dnah5 (dynein, axonemal, heavy chain 5)	SID315476870	-1.52	1.24	1.21	enough cells to score
17	Hint1 (histidine triad nucleotide binding protein 1)	SID315467206	1.37	1.58	1.58	enough cells to score
18	8030498B09Rik (RIKEN cDNA 8030498B09 gene)	SID315475475		1.24	1.16	fewer than 50 cells per well; well left out of scoring
19	Slc25a14	SID315469297	-1.29	1.22	1.12	enough cells to score

The list goes on; the last 3 above are carried over.
no.	Target gene	PubChem SID	p65 translocation robust z-score	nuclear/cytoplasmic p65 ratio, rep 1	nuclear/cytoplasmic p65 ratio, rep 2	low cell count flag
17	Hint1 (histidine triad nucleotide binding protein 1)	SID315467206	1.37	1.58	1.58	enough cells to score
18	8030498B09Rik (RIKEN cDNA 8030498B09 gene)	SID315475475		1.24	1.16	fewer than 50 cells per well; well left out of scoring
19	Slc25a14	SID315469297	-1.29	1.22	1.12	enough cells to score
20	Ccdc69 (coiled-coil domain containing 69)	SID315470980	0.27	1.46	2	enough cells to score
21	Cyb5r3 (cytochrome b5 reductase 3)	SID315476843	0.71	1.59	1.45	enough cells to score
22	Pomgnt1	SID315473485		1.17	1.07	fewer than 50 cells per well; well left out of scoring
23	Abcc9 (ATP-binding cassette, sub-family C member 9)	SID315469532	0.67	1.72	1.71	enough cells to score
24	Nol9 (nucleolar protein 9)	SID315474823		1.06	1.2	fewer than 50 cells per well; well left out of scoring
25	Dnajc17 (DnaJ heat shock protein family (Hsp40) member C17)	SID315473801	-0.43	1.21	1.49	enough cells to score
26	Rxrb (retinoid X receptor beta)	SID315469066	-1.08	1.33	1.4	enough cells to score
27	Cstf2t (cleavage stimulation factor, 3' pre-RNA subunit 2, tau)	SID315475816	-0.08	1.61	1.72	enough cells to score
28	Lrrc75a (leucine rich repeat containing 75A)	SID315477428	-0.09	1.54	1.39	enough cells to score
29	Mrrf (mitochondrial ribosome recycling factor)	SID315473277	-0.62	1.7	1.49	enough cells to score
30	Cdh22 (cadherin 22)	SID315476408	1.82	1.84	2.11	enough cells to score
31	Wdr83 (WD repeat domain containing 83)	SID315473247		3.91	1.39	fewer than 50 cells per well; well left out of scoring
32	Ppa2 (pyrophosphatase (inorganic) 2)	SID315475048	0.55	1.64	1.75	enough cells to score
33	Sprr2i (small proline-rich protein 2I)	SID315469448	-0.47	1.38	1.16	enough cells to score
34	Nkx2-4 (NK2 homeobox 4)	SID315478650	-1.03	1.56	1.38	enough cells to score
35	Bnip5 (BCL2 interacting protein 5)	SID315477501	1.26	1.45	1.42	enough cells to score
36	Aprt (adenine phosphoribosyl transferase)	SID315465477	-0.4	1.56	1.56	enough cells to score
37	Vps54 (VPS54 GARP complex subunit)	SID315479848	-0.83	1.27	1.13	enough cells to score
38	Hnf4a (hepatic nuclear factor 4, alpha)	SID315467240	1.03	1.65	1.44	enough cells to score
39	Eloc (elongin C)	SID315473313	-1.9 (active)	1.3	1.2	enough cells to score
40	Myo3a (myosin IIIA)	SID315481995	0.48	1.8	1.41	enough cells to score
41	Cdh17 (cadherin 17)	SID315465899	0.4	1.56	1.39	enough cells to score
42	Tssc4 (tumor-suppressing subchromosomal transferable fragment 4)	SID315471698	-0.47	1.45	1.43	enough cells to score
43	Gprasp1 (G protein-coupled receptor associated sorting protein 1)	SID315472953		1.6	2.84	fewer than 50 cells per well; well left out of scoring
44	Rcn3 (reticulocalbin 3, EF-hand calcium binding domain)	SID315470959	1.58	1.59	1.43	enough cells to score
45	Pdia2 (protein disulfide isomerase associated 2)	SID315473750	0.4	1.52	1.44	enough cells to score
46	Or6c213 (olfactory receptor family 6 subfamily C member 213)	SID315480217		1.35	1.25	fewer than 50 cells per well; well left out of scoring
47	Ublcp1 (ubiquitin-like domain containing CTD phosphatase 1)	SID315475682	0.26	1.54	1.98	enough cells to score
48	Ugt1a6a (UDP glucuronosyltransferase 1 family, polypeptide A6A)	SID315476082		0	1.27	fewer than 50 cells per well; well left out of scoring
49	Rbm48 (RNA binding motif protein 48)	SID315480872		1.21	1.4	fewer than 50 cells per well; well left out of scoring
50	Hoxc5 (homeobox C5)	SID315467270	0.07	1.43	1.4	enough cells to score
51	Clec2i (C-type lectin domain family 2, member i)	SID315475915	-0.33	1.48	1.27	enough cells to score
52	Myocd (myocardin)	SID315477859	-1.01	1.41	1.22	enough cells to score
53	Ptprcap	SID315468810	0.19	1.47	1.48	enough cells to score
54	Casp8 (caspase 8)	SID315465774	0.64	1.68	1.74	enough cells to score
55	Or52b2 (olfactory receptor family 52 subfamily B member 2)	SID315480666		1.63	1.22	fewer than 50 cells per well; well left out of scoring
56	Rapgef1 (Rap guanine nucleotide exchange factor (GEF) 1)	SID315476636	0.45	1.59	1.57	enough cells to score
57	Mrgprh (MAS-related GPR, member H)	SID315475763		1.56	0	fewer than 50 cells per well; well left out of scoring
58	Cspg5 (chondroitin sulfate proteoglycan 5)	SID315470728	0.19	1.66	1.75	enough cells to score
59	Cdh16 (cadherin 16)	SID315465898	-0.8	1.37	1.26	enough cells to score
